{"source": "PubChem BioAssay AID504467", "about": "(National Center for Advancing Translational Sciences (NCATS), 2011)", "note": "The whole screen tested about 330,000 compounds, of which about 7,700 (2.3%) were called active. Inconclusive results, whose numbers are uncertain, are shown with a selection of clear calls. Calls follow the shape of the dose curve; as a rule, active = well fitted inhibition curve with a large enough effect; inconclusive = small, poorly fitted or top-dose-only effect, or effect the other way; inactive = flat fitted curve, though single readings scatter. Where the call is inconclusive, the potency comes from a doubtful curve fit. % is scaled to controls: 0 for no effect and ±100 for the full control effect; potency is read from the fitted curve at half-maximal effect.", "data": [{"experiment": "qHTS screen for small molecules that inhibit ELG1-dependent DNA repair in human embryonic kidney (HEK293T) cells expressing luciferase-tagged ELG1; also: nearly all actives have a fitted effect of over 55% in size", "conditions": "HEK293T ELG1-luciferase reporter, luminescence, 16 h, DNA damage induced by 5-fluorouridine; activity change, negative = inhibition: at 46.1 µM (top of the series)", "how_it_was_run": "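Overnight (16 hr) co-exposure of 2,000 cells/well to 5-fluorouridine and compound at 37 °C preceded detection. Luciferase was quantified via ONE-Glo luminescence; loss of signal denotes inhibition.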", "values": [{"smiles": "CCOc1ccc(NC(=O)CCn2c(=O)[nH]c3ccsc3c2=O)cc1", "activity change, negative = inhibition": "inactive: -7.2%"}, {"smiles": "Cc1ccc(-c2cnc3n2CCCCC3)cc1", "Potency": "inconclusive: 16.4 µM [inhibitor, partial curve, poor fit]"}, {"smiles": "CC1CCN(S(=O)(=O)c2ccc(NC(=O)C3CC3)cc2)CC1", "Potency": "inconclusive: 9.2 µM [inhibitor, partial curve]"}, {"smiles": "OCCN(CCCn1c(C(F)(F)F)nc2ccccc21)c1nc(CN2CCCCC2)cs1", "Potency": "inconclusive: 0.184 µM [activator, single point]"}, {"smiles": "c1ccc(OCc2cc(-c3ccccc3)no2)cc1", "Potency": "inconclusive: 20.6 µM [activator, partial curve]"}, {"smiles": "N#Cc1ccc(CN2CCN(C(=O)c3cc(C4CC4)nn3-c3ccccc3)CC2)cc1", "Potency": "inconclusive: 35.5 µM [inhibitor, single point]"}, {"smiles": "COc1cc(COCC(O)CN2CCN(CCN3C(=O)c4cccc5cccc(c45)C3=O)CC2)cc(OC)c1OC", "note": "(stereo not given)", "Potency": "active: 11.6 µM"}, {"smiles": "CCOc1ccc(CN(C)C(=O)c2ccc(S(=O)(=O)N(C)c3ccccc3OC)cc2)cc1", "Potency": "inconclusive: 20.6 µM [inhibitor, single point]"}, {"smiles": "O=C(N/N=C/c1ccc(-c2cccc(C(F)(F)F)c2)o1)c1cccc(F)c1", "activity change, negative = inhibition": "inactive: -27.9%"}, {"smiles": "COc1cc(/C=C2/C(=O)NN(c3ccc(Cl)cc3)C2=O)cc(OC)c1O", "activity change, negative = inhibition": "inactive: 5.28%"}, {"smiles": "CCOC(=O)c1ccc(NC(=O)CN(C)S(=O)(=O)c2ccc(Br)s2)cc1", "Potency": "active: 25.9 µM"}, {"smiles": "Cn1cccc1Cc1nnc(SCC(=O)Nc2cccc(F)c2)n1CCc1ccccc1", "Potency": "inconclusive: 14.6 µM [inhibitor, partial curve, poor fit]"}, {"smiles": "COc1ccc(N(C)S(=O)(=O)c2cccc(C(=O)NC3CCCCC3C)c2)cc1", "note": "(stereo not given)", "Potency": "inconclusive: 18.3 µM [inhibitor, single point]"}, {"smiles": "COc1ccc(CC(=O)NCCCc2ccccc2)cc1OC", "Potency": "inconclusive: 11.6 µM [inhibitor, partial curve, poor fit]"}, {"smiles": "NC(=S)N/N=C1\\CC(n2nnn(-c3cccc(Cl)c3)c2=S)C2COC1O2", "note": "(stereo not given)", "activity change, negative = inhibition": "inactive: -11.4%"}, {"smiles": "CCOC(=O)c1nn(-c2ccc(F)cc2)c(=O)cc1OCC(=O)Nc1ccc(F)c(F)c1", "activity change, negative = inhibition": "inactive: 17.2%"}, {"smiles": "CCOc1ccccc1NC(=O)c1cnccn1", "activity change, negative = inhibition": "inactive: -5.09%"}, {"smiles": "Cc1ccc(OCC(=O)NC2CCCc3ccccc32)c(C)c1", "note": "(stereo not given)", "Potency": "inconclusive: 18.4 µM [inhibitor, partial curve, poor fit]"}, {"smiles": "Cc1nc2sccn2c(=O)c1S(=O)(=O)NC(C)c1ccccc1", "note": "(stereo not given)", "Potency": "inconclusive: 16.4 µM [activator, partial curve, poor fit]"}, {"smiles": "Cc1ccc(C)c(NC(=O)CN(C)C(=O)c2cc3ccccc3oc2=O)c1", "Potency": "inconclusive: 7.3 µM [activator, single point]"}, {"smiles": "CC12CCC(c3c1nc1ccccc1[n+]3[O-])C2(C)C", "note": "(stereo not given)", "activity change, negative = inhibition": "inactive: 1.36%"}, {"smiles": "CC(=O)c1ccc(NC(=O)CCc2c(C)nn(-c3ccc(N4CCOCC4)nn3)c2C)cc1", "Potency": "inconclusive: 8.2 µM [activator, partial curve, poor fit]"}, {"smiles": "Cc1cc(C)c(S(=O)(=O)NCCc2cc3ccc(C)c(C)c3[nH]c2=O)c(C)c1", "activity change, negative = inhibition": "inactive: -4.99%"}, {"smiles": "NNc1nccc(Nc2ccccc2C(=O)O)n1", "activity change, negative = inhibition": "inactive: 13%"}, {"smiles": "Cc1cccc(C(=O)NC(=S)N2CCN(C(=S)NC(=O)c3cccc(C)c3)CC2)c1", "Potency": "inconclusive: 29.1 µM [inhibitor, single point]"}, {"smiles": "Cc1ccc(N/C=C/C(=O)c2cccs2)cc1C", "Potency": "inconclusive: 2.31 µM [activator, partial curve]"}, {"smiles": "COc1cccc(CNC(=O)COc2cc3c(c4oc(=O)cc(C)c24)CCC(C)(C)O3)c1", "Potency": "inconclusive: 1.46 µM [inhibitor, partial curve, poor fit]"}, {"smiles": "N#Cc1ccc(S(=O)(=O)N2CCC(C(=O)N3CCN(Cc4ccc5c(c4)OCO5)CC3)CC2)cc1", "Potency": "inconclusive: 18.3 µM [inhibitor, single point]"}, {"smiles": "COC(=O)Cc1nc(NC(=O)c2cccs2)sc1C", "Potency": "inconclusive: 16.4 µM [activator, single point]"}, {"smiles": "CC(C)C(=O)OCC(=O)Nc1ccc(N=Nc2ccccc2)cc1", "Potency": "inconclusive: 9.2 µM [activator, partial curve]"}, {"smiles": "COc1ccc(/C=C/C(=O)N2CCN(c3ccccn3)CC2)c2ccccc12", "activity change, negative = inhibition": "inactive: -16.8%"}, {"smiles": "CC(=O)c1sc2c(c1OC(=O)c1ccc(Cl)cc1Cl)c(=O)n(-c1ccccc1)c(=S)n2-c1ccccc1", "Potency": "inconclusive: 20.6 µM [inhibitor, single point]"}, {"smiles": "COC(=O)c1sc(N)c(C(=O)OC)c1CSc1nnnn1C", "Potency": "inconclusive: 32.6 µM [inhibitor, partial curve, poor fit]"}, {"smiles": "COc1cccc(CNC(=O)c2cccc(NC(=O)C3=C(C)OCCS3)c2)c1", "Potency": "inconclusive: 29.1 µM [inhibitor, single point]"}, {"smiles": "O=C(Nc1nccs1)C1CCCN1/C=C/C(=O)C(F)(F)F", "note": "(stereo not given)", "Potency": "inconclusive: 16.4 µM [activator, single point]"}, {"smiles": "Cc1ccc(N2NC(=O)/C(=C/c3ccc(-c4ccc(Cl)c(C(=O)O)c4)o3)C2=O)cc1C", "activity change, negative = inhibition": "inactive: 9.89%"}, {"smiles": "CCc1ccc(C(O)(C(C)C)C(CN2CCOCC2)c2ccccc2)cc1", "note": "(stereo not given)", "Potency": "inconclusive: 25.9 µM [inhibitor, single point]"}, {"smiles": "CN1CCN(C(=S)c2cn(CCOc3ccccc3F)c3ccccc23)CC1", "Potency": "inconclusive: 25.9 µM [inhibitor, partial curve, poor fit]"}, {"smiles": "CCCCN(C(=O)c1ccc(-c2ccc([N+](=O)[O-])cc2)o1)c1c(N)n(CCCC)c(=O)[nH]c1=O", "activity change, negative = inhibition": "inactive: 0.846%"}, {"smiles": "CCOC(=O)C1=C(COC(=O)CNC(=O)c2ccccc2F)NC(=O)NC1C", "note": "(stereo not given)", "Potency": "inconclusive: 5.17 µM [activator, single point]"}, {"smiles": "CCOCCCN1C(=O)CN(C2CCCCC2)C(=O)C1c1ccc(OCC)c(OC)c1", "note": "(stereo not given)", "Potency": "inconclusive: 35.5 µM [inhibitor, single point]"}, {"smiles": "Cc1cc(C)cc(C(=O)Nc2ccncc2)c1", "activity change, negative = inhibition": "inactive: -10.1%"}, {"smiles": "O=C(c1cnn2c(C(F)(F)F)cc(-c3ccc4c(c3)OCO4)nc12)N1CCCCC1", "activity change, negative = inhibition": "inactive: -25.2%"}, {"smiles": "COc1ccccc1NC(=O)CNC(=O)Cn1cnc2sc(C)c(C)c2c1=O", "activity change, negative = inhibition": "inactive: 2.43%"}, {"smiles": "Cc1ccc(-n2cnc3scc(-c4cccs4)c3c2=O)cc1", "Potency": "inconclusive: 18.4 µM [inhibitor, single point]"}, {"smiles": "COc1ccc(-c2cnn3c(N)c(S(=O)(=O)C(C)(C)C)cnc23)cc1", "activity change, negative = inhibition": "inactive: 10.4%"}, {"smiles": "COc1ccc(NC(=O)CSc2nnc3n2CCCCC3)cc1S(=O)(=O)N1CCOCC1", "activity change, negative = inhibition": "inactive: 6.66%"}, {"smiles": "COc1ccc2sc(-c3ccc(N(C)C)cc3)c(-c3cnc(OC)nc3)c2c1", "activity change, negative = inhibition": "inactive: 28.3%"}, {"smiles": "COc1ccc2c(CN3CCN(S(=O)(=O)c4cccs4)CC3)cc(=O)oc2c1", "Potency": "active: 23.1 µM"}, {"smiles": "O=C(/C=C/NNC(=O)c1ccccc1)c1ccc([N+](=O)[O-])cc1", "Potency": "inconclusive: 9.2 µM [inhibitor, partial curve]"}, {"smiles": "Cc1nc2c(cnn2-c2ccccc2Cl)c(=O)n1-c1ccc(N2CCC(C)CC2)cc1", "Potency": "active: 16.4 µM"}, {"smiles": "COc1cccc(NC(=O)CN(C)C(=O)c2cccnc2Nc2cccc(C(F)(F)F)c2)c1", "Potency": "inconclusive: 29.1 µM [inhibitor, single point]"}, {"smiles": "c1ccc(OCCN2CCN(C(c3ccccc3)c3ccccc3)CC2)cc1", "Potency": "inconclusive: 11.2 µM [inhibitor, single point]"}, {"smiles": "COc1ccc(-c2csc3ncnc(Nc4ccc(O)cc4)c23)cc1", "Potency": "inconclusive: 18.3 µM [inhibitor, single point]"}, {"smiles": "Cn1c(=O)c2c(ncn2CC2OCCO2)n(C)c1=O", "activity change, negative = inhibition": "inactive: 11.5%"}, {"smiles": "O=C(NCc1cccs1)c1csc2ccccc12", "Potency": "inconclusive: 18.4 µM [activator, partial curve]"}, {"smiles": "O=C(CN1CCCCC1)Nc1ccc(NC(=O)c2ccccc2Cl)cc1Cl", "Potency": "inconclusive: 29.1 µM [inhibitor, single point]"}, {"smiles": "CN(C)c1cccc(C(=O)NC2CCCCCC2)c1", "Potency": "inconclusive: 14.6 µM [activator, partial curve]"}, {"smiles": "O=c1c2ccccc2c(-c2ccc(O)cc2)nn1-c1cccc(C(F)(F)F)c1", "Potency": "inconclusive: 23.1 µM [inhibitor, partial curve]"}, {"smiles": "Cc1nc(-c2ccc(S(=O)(=O)NCC3CCN(C(=O)OC(C)(C)C)CC3)s2)cs1", "Potency": "active: 20.6 µM"}, {"smiles": "CCOc1ccc(N(CC(=O)NCc2ccc(OC)cc2)S(C)(=O)=O)cc1", "Potency": "inconclusive: 23.1 µM [activator, partial curve]"}, {"smiles": "CC(=O)c1cc(F)c(N2CCN(C(=O)c3ccco3)CC2)cc1C", "activity change, negative = inhibition": "inactive: 17.6%"}, {"smiles": "C=CCOC(=O)C1=C(C)NC(=S)C(C#N)(CC=C)C1c1ccccc1Cl", "note": "(stereo not given)", "Potency": "inconclusive: 9.2 µM [inhibitor, partial curve]"}, {"smiles": "O=C(O)c1nn(-c2ccccc2-c2n[nH]c(=O)[nH]c2=O)c(=O)[nH]c1=O", "activity change, negative = inhibition": "inactive: 8.38%"}, {"smiles": "COc1ccc(NC(=O)COc2ccc3c(c2)OCO3)cc1", "Potency": "inconclusive: 16.4 µM [activator, single point]"}, {"smiles": "CCOC(=O)N1CCC(N(CCN(C)C)C(=S)Nc2ccccc2Cl)CC1", "Potency": "inconclusive: 29.1 µM [inhibitor, single point]"}, {"smiles": "CCCc1nn(C)c(C(=O)Nc2cccc(C)c2)c1Cl", "Potency": "inconclusive: 14.6 µM [activator, partial curve]"}, {"smiles": "CCOc1cc(-c2c(C#N)c(N)nc3c2CCCC3)ccc1O", "activity change, negative = inhibition": "inactive: -13.3%"}, {"smiles": "CCN(CC)C(=O)CSc1nc2c(sc(=S)n2CC)c(=O)n1-c1ccccc1", "Potency": "inconclusive: 29.1 µM [inhibitor, partial curve, poor fit]"}, {"smiles": "Cc1ccc(NC(=O)C2CC2C)cc1S(=O)(=O)N1CCOCC1", "note": "(stereo not given)", "activity change, negative = inhibition": "inactive: -3.46%"}]}]}
